Laboratory results as given in PMC7979691.
No constants are given. Whether binding was seen depends on the method and setting. Binding can be weak; no strength is given.

Protein sequences, listed by entry. Tags and fused reporters are not part of them. Lines headed by an entry give the natural chain unless they say otherwise; changes in a name come on top.
UniProt I1JZ08: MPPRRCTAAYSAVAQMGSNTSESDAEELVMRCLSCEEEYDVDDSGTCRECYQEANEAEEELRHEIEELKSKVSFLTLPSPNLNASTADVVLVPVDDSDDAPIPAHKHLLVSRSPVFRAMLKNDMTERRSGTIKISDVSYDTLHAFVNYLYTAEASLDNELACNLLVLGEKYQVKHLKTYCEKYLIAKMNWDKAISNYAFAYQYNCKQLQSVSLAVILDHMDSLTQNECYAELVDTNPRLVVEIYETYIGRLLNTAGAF
UniProt A0A0R0FVG1: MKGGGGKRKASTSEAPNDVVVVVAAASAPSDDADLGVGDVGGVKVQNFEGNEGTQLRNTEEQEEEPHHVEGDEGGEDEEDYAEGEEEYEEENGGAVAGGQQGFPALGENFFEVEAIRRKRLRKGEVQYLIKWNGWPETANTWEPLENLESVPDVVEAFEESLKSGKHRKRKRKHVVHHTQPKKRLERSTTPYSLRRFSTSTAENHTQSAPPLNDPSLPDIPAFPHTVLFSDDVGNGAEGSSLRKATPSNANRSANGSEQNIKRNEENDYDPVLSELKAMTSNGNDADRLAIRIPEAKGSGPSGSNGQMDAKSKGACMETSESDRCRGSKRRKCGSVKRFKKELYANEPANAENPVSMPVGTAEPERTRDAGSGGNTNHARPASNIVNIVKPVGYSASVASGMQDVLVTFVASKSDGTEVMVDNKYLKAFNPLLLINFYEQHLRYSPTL

Target: GmBTB/POZ-GST (soybean (Glycine max)) (UniProt I1JZ08)
Test: pull-down; His-tagged protein incubated with immobilized GST or GST-tagged protein; bound fraction detected with anti-His antibody; both purified

binding: binds
Substance: GmLHP1-His (from UniProt A0A0R0FVG1)
